Experimental data published in article PMC3012091, “The Concentration of Soluble Extracellular Amyloid-β Protein in Acute Brain Slices from CRND8 Mice” (PLoS ONE, 2010).

Legend:
[1] = Diffusive loss of fluorescent Aβ1–42 from pre-loaded acute slices, 2-photon imaging; parameters: species or system mouse
[2] = Diffusion of fluorescent Aβ1–42 in acute hippocampal slice, pressure ejection, 2-photon line scans; parameters: species or system mouse; settings: 6 locations

For “HiLyte Fluor 488 labeled Aβ(1–42) [fluorescent Aβ1–42]”, the “time constant of exponential fit to decay in fluorescence” value ([1]; single site of figure 4, slice pre-incubated with 50 µM for 3.5 hours, focal plane 100 µm below surface) was 25.2 min, the “time constant of decline in fluorescence intensity (loss from slice)” value ([1]; slices pre-loaded with 50 µM for 2–3.5 hours, imaged 100 µm below surface during perfusion with Aβ-free ACSF at 35–37°C, n = 3 slices) was 18.0 ± 7.0 min and the “width of the Gaussian fit at end” value ([2]; after 705±145 ms of diffusion) was 13.7±2.46 µm. For the same substance, the “width of the Gaussian fit at start” value ([2]; fluorescence line scan after pressure ejection) was 6.5±1.0 µm.
